{"sequences": {"note": "By UniProt entry, the sequences of proteins in these tests, tags left out.", "UniProt P53779": "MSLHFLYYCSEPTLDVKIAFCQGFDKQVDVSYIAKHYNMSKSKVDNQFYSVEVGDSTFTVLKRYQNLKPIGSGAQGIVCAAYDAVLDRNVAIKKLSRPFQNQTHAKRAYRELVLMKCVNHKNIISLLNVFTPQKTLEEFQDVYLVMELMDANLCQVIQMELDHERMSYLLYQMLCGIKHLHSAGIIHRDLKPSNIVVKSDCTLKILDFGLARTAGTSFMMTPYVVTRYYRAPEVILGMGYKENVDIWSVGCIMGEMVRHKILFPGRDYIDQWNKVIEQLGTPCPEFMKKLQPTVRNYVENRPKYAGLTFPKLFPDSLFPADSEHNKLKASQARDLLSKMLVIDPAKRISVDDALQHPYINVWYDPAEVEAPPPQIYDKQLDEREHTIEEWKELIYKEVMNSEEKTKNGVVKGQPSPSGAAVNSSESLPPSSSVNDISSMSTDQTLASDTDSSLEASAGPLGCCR", "UniProt P32121": "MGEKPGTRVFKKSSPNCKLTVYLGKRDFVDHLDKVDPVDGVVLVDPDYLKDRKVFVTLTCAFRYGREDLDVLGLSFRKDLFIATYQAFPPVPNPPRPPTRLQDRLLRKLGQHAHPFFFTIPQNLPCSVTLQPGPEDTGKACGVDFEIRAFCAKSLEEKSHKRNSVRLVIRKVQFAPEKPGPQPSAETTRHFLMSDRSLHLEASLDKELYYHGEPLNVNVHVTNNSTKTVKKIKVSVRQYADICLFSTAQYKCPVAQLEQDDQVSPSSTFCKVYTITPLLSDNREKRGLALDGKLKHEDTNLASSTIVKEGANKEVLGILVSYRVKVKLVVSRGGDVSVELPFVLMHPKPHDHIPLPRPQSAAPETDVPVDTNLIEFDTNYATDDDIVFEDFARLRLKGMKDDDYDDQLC"}, "source": "paper PMC8477192", "about": "“An ionic lock and a hydrophobic zipper mediate the coupling between an insect pheromone receptor BmOR3 and downstream effectors” (The Journal of Biological Chemistry, 2021)", "molecular_target": "YFP-tagged JNK3 (UniProt P53779)", "experiment": "FRET or BRET; arrestin-kinase BRET in living HEK293 cells cotransfected with WT AT1R, β-arr2-Rluc and a YFP-tagged kinase; 1 μM AngII for 10 min", "note": "Results are given in words; binding and its absence hold for the method and conditions named. In cells and extracts the contact can be indirect. Some results given as binding are weak or reduced against the parent protein; the word gives no strength.", "data": [{"substance": "β-arr2-Rluc (from UniProt P32121 1-409)", "values": [{"measurement": "binding", "value": "binds"}]}]}
